No constants are given. Whether binding was seen depends on the method and setting. Binding seen in cells or lysates may run through a third protein. Some results given as binding are weak or reduced against the parent protein; the word gives no strength. Tags and fused reporters may be left off the sequences shown.
Assays:
Atoh1-nYFP (mouse) = target: T1, Atoh1-nYFP (mouse) (UniProt P48985); assay: split reporter; BiFC in DAOY cells transfected with Atoh1-nYFP and a kinase-cYFP; GFP signal read by flow cytometry; n = 3
T1 sequence: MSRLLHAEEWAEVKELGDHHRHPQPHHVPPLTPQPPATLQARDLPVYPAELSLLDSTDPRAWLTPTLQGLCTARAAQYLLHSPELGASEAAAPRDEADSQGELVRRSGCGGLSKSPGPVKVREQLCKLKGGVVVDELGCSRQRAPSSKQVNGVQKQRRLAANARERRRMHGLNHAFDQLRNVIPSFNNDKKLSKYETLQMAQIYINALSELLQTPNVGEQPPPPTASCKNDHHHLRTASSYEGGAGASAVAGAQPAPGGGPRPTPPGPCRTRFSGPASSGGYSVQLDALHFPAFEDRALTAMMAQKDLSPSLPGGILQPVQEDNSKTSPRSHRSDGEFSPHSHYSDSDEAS

By UniProt entry, the sequences of proteins in these tests, tags left out.
UniProt Q62120: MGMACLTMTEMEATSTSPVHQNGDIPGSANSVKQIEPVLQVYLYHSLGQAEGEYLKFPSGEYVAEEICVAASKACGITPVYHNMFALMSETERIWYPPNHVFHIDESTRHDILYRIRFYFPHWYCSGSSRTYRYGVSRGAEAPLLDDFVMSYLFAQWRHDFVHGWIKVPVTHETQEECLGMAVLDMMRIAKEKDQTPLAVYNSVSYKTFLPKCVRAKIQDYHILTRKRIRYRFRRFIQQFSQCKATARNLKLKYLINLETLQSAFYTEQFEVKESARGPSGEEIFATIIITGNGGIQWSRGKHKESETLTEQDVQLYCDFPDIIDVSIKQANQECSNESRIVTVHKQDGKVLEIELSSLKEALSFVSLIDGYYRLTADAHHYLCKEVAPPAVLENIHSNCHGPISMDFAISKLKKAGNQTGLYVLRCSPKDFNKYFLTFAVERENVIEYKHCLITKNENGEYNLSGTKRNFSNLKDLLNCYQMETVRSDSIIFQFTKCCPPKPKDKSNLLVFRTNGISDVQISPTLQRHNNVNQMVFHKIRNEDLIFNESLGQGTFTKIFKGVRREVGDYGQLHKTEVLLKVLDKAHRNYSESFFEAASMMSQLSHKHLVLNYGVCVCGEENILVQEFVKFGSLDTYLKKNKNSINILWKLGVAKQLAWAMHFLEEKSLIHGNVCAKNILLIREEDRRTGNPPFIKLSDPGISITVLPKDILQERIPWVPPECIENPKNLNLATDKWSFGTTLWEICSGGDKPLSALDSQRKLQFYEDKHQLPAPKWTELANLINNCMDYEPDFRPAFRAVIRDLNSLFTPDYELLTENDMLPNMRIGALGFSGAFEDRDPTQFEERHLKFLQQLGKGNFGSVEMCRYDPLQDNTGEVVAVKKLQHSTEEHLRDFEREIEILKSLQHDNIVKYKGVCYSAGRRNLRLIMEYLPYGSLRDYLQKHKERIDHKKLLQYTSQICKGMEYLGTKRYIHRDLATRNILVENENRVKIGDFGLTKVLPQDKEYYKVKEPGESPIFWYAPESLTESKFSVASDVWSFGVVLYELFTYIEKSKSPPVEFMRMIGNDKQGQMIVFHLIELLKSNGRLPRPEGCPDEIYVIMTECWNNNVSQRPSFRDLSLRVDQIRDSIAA

[1] = target: T2, Atoh1-GFP (knock-in, in mouse tissue) (mouse (endogenous knock-in in Nd2::SmoA1 tumours and cerebellum)) (UniProt P48985); assay: co-IP; IP of Jak2 (anti-Jak2) or Atoh1 (anti-GFP) from medulloblastoma tumor tissue
T2 sequence: T1 sequence

[2] = target: T2, Atoh1-GFP (knock-in, in mouse tissue) (mouse (endogenous knock-in in Nd2::SmoA1 tumours and cerebellum)); assay: co-IP; IP of Jak2 (anti-Jak2) or Atoh1 (anti-GFP) from normal P5 cerebellar tissue

| binding (Atoh1-nYFP (mouse)) | binding [1] | Substance | binding [2] |
| --- | --- | --- | --- |
| binds |  | Jak2-cYFP (from UniProt Q62120 1-1132) (enzyme) |  |
|  | binds | Janus kinase 2 (Jak2) (from UniProt Q62120 1-1132) (enzyme) | no binding (condition: in normal P5 cerebellar tissue) |

— article PMC5736349
